Data reported in PMC8572004.
These are yes or no findings as the source states them, for the method shown. Binding seen in cells or lysates may run through a third protein. Some results given as binding are weak or reduced against the parent protein; the word gives no strength. Sequences can lack the tags named with a protein.

Molecular target: T1, GST-Rab11 (small GTPase on glutathione beads, loaded with GTPγS or GDP) (Drosophila) (UniProt O18335)
T1 sequence: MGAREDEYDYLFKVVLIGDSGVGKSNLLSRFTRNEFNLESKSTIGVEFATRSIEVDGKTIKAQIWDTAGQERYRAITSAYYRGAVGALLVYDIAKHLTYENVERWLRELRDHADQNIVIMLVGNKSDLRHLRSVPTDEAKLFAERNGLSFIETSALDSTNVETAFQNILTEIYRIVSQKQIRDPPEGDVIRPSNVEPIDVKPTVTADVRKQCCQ
Assay: pull-down; GST-small GTPase (60 μg) on glutathione sepharose beads loaded with GTPγS; S2 cell lysate added in NL100 buffer (20 mM HEPES pH 7.5, 100 mM NaCl, 5 mM MgCl2, 0.1% Triton X-100, 0.1 mM GTPγS); 4°C, 1 h; only the target purified

binding: binds
B1: Sec15 in S2 cell lysate (GST pull-down) (protein, UniProt Q9VDE6 1-766)
chain: MSKVTVQDIEAVDDYWGPTFRSILEGNNTKQIGDQLEQRIRSHDKEIERICNLYYQGFIDSIQELLQVRTQAQQLHNEVHSLDTSLRQISASLIQQGNDLVRARQIESNLASAIEALKSCLPALECYMKFTQQAKNKQYYQALRTLETLETEHLTRLKTHNYRFATQMQIQIPIIKENIRRSSASDFREFLENIRKFSPRIGELAITHTKQLQKRDINAIIAEHMQQMNGGEAGGAGAGGDDDGANVSAQDLIDFSPIYRCLHIYMVLGQREYFEKDYRQQRRDQAKLVLQPPPNMHDNLEAYKTYICAIVGFFVVEDHVKNTAGDVVTSSYLEDLWSSSLTKFVNEISMSSSSCTDPNILLRIKNLIMLSINTFKCYGYTVNILWELLHNMRDHYNEVLLQRWVHVFREILDKEQFLPMVVQNTEEYECIIERFPFHSEQLENAPFPKKFPFSRMVPEVYHQAKEFMYACMKFAEELTLSPNEVAAMVRKAANLLLTRSFSGCLSVVFRQPSITLTQLIQIIIDTQYLEKAGPFLDEFVCHMTNTERSVSQTPSAMFHVARQDAEKQVGLRICSKIDEFFELSAYDWLLVEPPGIASAFITDMISYLKSTFDSFAFKLPHIAQAACRRTFEHIAEKIYSIMYDEDVKQISTGALTQINLDLMQCEFFAASEPVPGLKEGELSKYFLRNRQLLDLLILEEWSTYFHDYGKQENRYHLVQPQSIIVILEKIREADKKPIFSLVRKNDKKKLLETVLKQLKHIADRQN
